# Results deposited as PubChem BioAssay AID1224828 (NIAID, 2016).
# Aim: 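Knock-downs that increase or decrease LPS-induced p65 nuclear translocation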 (primary screen)
# System: mouse RAW264.7 G9 macrophage reporter cells (GFP-p65, Tnf promoter-mCherry)
# Knock-down reagent: siRNA pool against mouse genes, 100 nM
# Duration: 2 days siRNA transfection, then 40 min LPS before fixation
# Challenge: LPS (Salmonella minnesota R595) at 10 ng/ml
# Measured: 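Imaged p65 nuclear translocation ratio, normalised to the plate median, converted to robust z-scores and averaged across two replicates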
# Reading the numbers: p65 translocation robust z-score: higher = more nuclear NF-kappaB p65 after LPS than the plate median; nuclear/cytoplasmic p65 ratio: higher = more nuclear NF-kappaB p65
# Rule for the call: 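Called active when z exceeds 3.3 or falls under -1.56 (median of Tlr4 controls), giving activity score of at least 50; no calls for control wells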
# Meaning of the calls: active = hit (p65 shift raised or lowered); inactive = no clear change
# The whole screen tested about 17,000 reagents; shown is a random part of them. 762 of all reagents (4.5%) count as active. 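Active calls include both raised and lowered p65 entry, mostly lowered; wells with fewer than 50 cells lack a z-score.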 Raw values vary from plate to plate and are shown uncorrected. No sequences are given here.
target,p65 translocation robust z-score,"nuclear/cytoplasmic p65 ratio, rep 1","nuclear/cytoplasmic p65 ratio, rep 2",low cell count flag,activity call
Zfp2 (zinc finger protein 2),-0.55,1.33,1.2,enough cells to score,inactive
Npy4r (neuropeptide Y receptor Y4),-0.37,1.51,1.48,enough cells to score,inactive
D630003M21Rik (RIKEN cDNA D630003M21 gene),-1.27,1.32,1.43,enough cells to score,inactive
Exo1 (exonuclease 1),-0.51,1.41,1.29,enough cells to score,inactive
"H2-D1 (histocompatibility 2, D region locus 1)",,1.15,1.21,fewer than 50 cells per well; well left out of scoring,inactive
Aimp2,0.35,1.65,1.43,enough cells to score,inactive
Ube4b (ubiquitination factor E4B),-0.06,1.55,1.45,enough cells to score,inactive
Chek2 (checkpoint kinase 2),1.01,1.93,1.45,enough cells to score,inactive
Tesk1 (testis specific protein kinase 1),-0.72,1.52,1.34,enough cells to score,inactive
Nek4 (NIMA (never in mitosis gene a)-related expressed kinase 4),-0.82,1.61,1.23,enough cells to score,inactive
Glt1d1 (glycosyltransferase 1 domain containing 1),0.95,1.33,1.59,enough cells to score,inactive
"Sec16b (SEC16 homolog B, endoplasmic reticulum export factor)",1.09,1.46,1.43,enough cells to score,inactive
Sugct (succinyl-CoA glutarate-CoA transferase),0.4,1.62,1.8,enough cells to score,inactive
Pcgf3 (polycomb group ring finger 3),,1.5,1.4,fewer than 50 cells per well; well left out of scoring,inactive
Ctps1 (cytidine 5'-triphosphate synthase 1),-0.15,1.45,1.37,enough cells to score,inactive
"Fam53c (family with sequence similarity 53, member C)",,0,1.85,fewer than 50 cells per well; well left out of scoring,inactive
Or1e32 (olfactory receptor family 1 subfamily E member 32),2.3,1.94,1.73,enough cells to score,inactive
"Itch (itchy, E3 ubiquitin protein ligase)",-0.01,1.37,1.47,enough cells to score,inactive
Arl10 (ADP-ribosylation factor-like 10),0.87,1.56,1.8,enough cells to score,inactive
"Scgb3a2 (secretoglobin, family 3A, member 2)",3.67,2.35,1.81,enough cells to score,active
Socs2 (suppressor of cytokine signaling 2),0.94,1.62,1.76,enough cells to score,inactive
Smim7 (small integral membrane protein 7),-0.23,1.34,1.57,enough cells to score,inactive
Inmt (indolethylamine N-methyltransferase),2,1.6,1.43,enough cells to score,inactive
Hdac11 (histone deacetylase 11),1.11,1.6,1.5,enough cells to score,inactive
Eef1a2 (eukaryotic translation elongation factor 1 alpha 2),-0.68,1.32,1.27,enough cells to score,inactive
"Pigz (phosphatidylinositol glycan anchor biosynthesis, class Z)",0.29,1.62,1.39,enough cells to score,inactive
"Atp2c1 (ATPase, Ca++-sequestering)",-0.4,1.59,1.52,enough cells to score,inactive
"Gjb2 (gap junction protein, beta 2)",-0.84,1.31,1.28,enough cells to score,inactive
Smap1 (small ArfGAP 1),-0.86,1.26,1.13,enough cells to score,inactive
Or4k48 (olfactory receptor family 4 subfamily K member 48),-1.5,1.35,1.25,enough cells to score,inactive
S100a11 (S100 calcium binding protein A11),1.32,1.72,1.59,enough cells to score,inactive
Zfp811 (zinc finger protein 811),0.6,1.82,1.62,enough cells to score,inactive
Klre1 (killer cell lectin-like receptor family E member 1),-1.04,1.43,1.27,enough cells to score,inactive
4931403M11Rik (RIKEN cDNA 4931403M11 gene),,1.4,1.45,fewer than 50 cells per well; well left out of scoring,inactive
"Akr1c13 (aldo-keto reductase family 1, member C13)",-0.03,1.54,1.74,enough cells to score,inactive
Chuk (conserved helix-loop-helix ubiquitous kinase),-1.75,1.27,1.16,enough cells to score,active
Chid1 (chitinase domain containing 1),0.29,1.66,1.65,enough cells to score,inactive
Zc3h7a (zinc finger CCCH type containing 7 A),-0.24,1.4,1.2,enough cells to score,inactive
Or10ab5 (olfactory receptor family 10 subfamily AB member 5),-0.66,1.36,1.19,enough cells to score,inactive
"Fam20b (FAM20B, glycosaminoglycan xylosylkinase)",0.54,1.51,1.6,enough cells to score,inactive
"Aldh1a1 (aldehyde dehydrogenase family 1, subfamily A1)",0.1,1.57,1.7,enough cells to score,inactive
"Pim1 (Pim1, proto-oncogene, serine/threonine kinase)",0.02,1.66,1.4,enough cells to score,inactive
2610528J11Rik (RIKEN cDNA 2610528J11 gene),,1.18,1.29,fewer than 50 cells per well; well left out of scoring,inactive
Gk2 (glycerol kinase 2),,1.79,1.53,fewer than 50 cells per well; well left out of scoring,inactive
Fgfr1 (fibroblast growth factor receptor 1),,1.56,1.24,fewer than 50 cells per well; well left out of scoring,inactive
Prepl (prolyl endopeptidase-like),0.87,1.86,1.75,enough cells to score,inactive
Siglece (sialic acid binding Ig-like lectin E),-0.63,1.29,1.21,enough cells to score,inactive
Bcar3 (breast cancer anti-estrogen resistance 3),-0.8,1.48,1.51,enough cells to score,inactive
"Pigp (phosphatidylinositol glycan anchor biosynthesis, class P)",-0.45,1.4,1.31,enough cells to score,inactive
Tll2 (tolloid-like 2),,1.12,1.01,fewer than 50 cells per well; well left out of scoring,inactive
Map3k5 (mitogen-activated protein kinase kinase kinase 5),0.17,1.67,1.43,enough cells to score,inactive
"Dtx4 (deltex 4, E3 ubiquitin ligase)",-1.16,1.34,1.19,enough cells to score,inactive
Adgrb3 (adhesion G protein-coupled receptor B3),-1.97,1.32,1.2,enough cells to score,active
Or10s1 (olfactory receptor family 10 subfamily S member 1),2.16,1.73,1.42,enough cells to score,inactive
Golph3l (golgi phosphoprotein 3-like),,1.6,1.21,fewer than 50 cells per well; well left out of scoring,inactive
Galnt1 (polypeptide N-acetylgalactosaminyltransferase 1),0.72,1.68,1.45,enough cells to score,inactive
Usp14 (ubiquitin specific peptidase 14),0.61,1.53,1.65,enough cells to score,inactive
Or7a42 (olfactory receptor family 7 subfamily A member 42),,1.29,1.39,fewer than 50 cells per well; well left out of scoring,inactive
"Tubgcp5 (tubulin, gamma complex component 5)",0.12,1.37,1.27,enough cells to score,inactive

Part of the list above, reformatted:
| target | p65 translocation robust z-score | nuclear/cytoplasmic p65 ratio, rep 1 | nuclear/cytoplasmic p65 ratio, rep 2 | low cell count flag | activity call |
| --- | --- | --- | --- | --- | --- |
| Smap1 (small ArfGAP 1) | -0.86 | 1.26 | 1.13 | enough cells to score | inactive |
| Or4k48 (olfactory receptor family 4 subfamily K member 48) | -1.5 | 1.35 | 1.25 | enough cells to score | inactive |
| S100a11 (S100 calcium binding protein A11) | 1.32 | 1.72 | 1.59 | enough cells to score | inactive |
| Zfp811 (zinc finger protein 811) | 0.6 | 1.82 | 1.62 | enough cells to score | inactive |
| Klre1 (killer cell lectin-like receptor family E member 1) | -1.04 | 1.43 | 1.27 | enough cells to score | inactive |
| 4931403M11Rik (RIKEN cDNA 4931403M11 gene) | – | 1.4 | 1.45 | fewer than 50 cells per well; well left out of scoring | inactive |
